Data from US9453044 (dated 2016).
“And” between values parts separate entries of the source, which are not always exact repeats. Equal entries are not always repeated. Plain letter strings leave the end groups untold.

Test: general procedure: peptide synthesis; MBHA resin with 2-hydroxycinnamamide linker; PyBOP
Details: for cyclisation yield: cyclisation step, head-to-tail ring, sequence written open

Substance | cyclisation yield | step yield (coupling step) | step yield (late stage modification step) | step yield (coupling step, run 1) | step yield (coupling step, run 2)
SGLYGFAG | 52% |  |  |  | 
Ac-LGFAG-FAGVGLFA-NH2 |  | 67% | 38% |  | 
Ac-LGFAG-GAGVSAG-NH2 |  | 72% | 43% |  | 
Fmoc-A-GAGVGLFA-NH2 |  | 60% | 44% |  | 
Ac-LGFAG-GAGVGLFA-NH2 |  | 66% | 37% |  | 
TGLFGFAG | 63% |  |  |  | 
Ac-LGFAG-LAGVSAG-NH2 |  |  | 38% | 52% | 55% and 60%
SGLFGFAG | 65% |  |  |  | 
